Results from PubChem BioAssay AID1487 (National Center for Advancing Translational Sciences (NCATS), 2009).
Some of the results follow. Further columns of the screen follow, without active or inactive calls. Compounds called inactive in the main read-out are mostly missing here. Potencies come from curve fits of mixed quality, noted in brackets.

Assay: qHTS Assay for Modulators of Lamin A Splicing
Details: HeLa LMNA splicing GFP/RFP minigene ratio, 48 h
In short: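 S3 HeLa cells stably expressing lamin A-EGFP splicing minigene plus DsRed2, 600 cells/well, 48 h compound exposure at 37C. Laser-scanning cytometry; analysed as GFP (500-530 nm)/RFP (575-640 nm) total intensity ratio; 0.5% DMSO vehicle.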

[1] = measured here: GFP splicing reporter channel
[2] = measured here: RFP viability control channel

Row | SMILES | AC50 [1] | AC50 [2]
1 | COC(=O)c1ccc(CSc2nc3sc(C(=O)O)c(C)c3c(=O)[nH]2)cc1 | 0.0631 µM [rising, full curve, poor fit] | 
2 | COc1ccc(C)cc1N1C(=N)/C(=C2/Nc3ccccc3S2)C(c2ccccc2)C1=O (centres undefined) | 20 µM [rising, partial curve, poor fit] | 7.08 µM [rising, single point]
3 | Cc1ccc(S/C=C\C(=O)c2ccccc2)cc1 | 20 µM [falling, single point] | 35.5 µM [falling, single point]
4 | COc1cccc(NC(=O)CSc2c3c(nc4ccccc24)CCCC3)c1 |  | 25.1 µM [falling, single point]
5 | Nc1nc(NC(=O)c2cccs2)nn1-c1ccccc1 | 6.31 µM [falling, partial curve, poor fit] | 2.24 µM [falling, partial curve, poor fit]
6 | CSc1cccc(NS(=O)(=O)c2ccc3c(c2)oc(=O)n3C)c1 |  | 17.8 µM [rising, single point]
7 | Cc1ccc(-c2nnc3c4ccccc4c(C)nn23)cc1S(=O)(=O)N1CCN(CCO)CC1 |  | 35.5 µM [rising, single point]
8 | Cc1ccc(S(=O)(=O)O)cc1C |  | 1.12 µM [falling, full curve, poor fit]
9 | O=C(CN1CCCc2ccccc21)N/N=C/c1ccccc1O |  | 10 µM [rising, partial curve]
10 | CCOC(=O)c1cccc(NC(=O)CN(c2ccc(C)cc2)S(=O)(=O)c2c(C)noc2C)c1 | 31.6 µM [rising, single point] | 
11 | COc1ccc(CN2CSC(=S)N(Cc3ccc(OC)cc3)C2)cc1 |  | 3.98 µM [falling, partial curve]
12 | COc1ccc(-c2noc(CN(C)S(=O)(=O)c3ccc(C)cc3)n2)cc1 |  | 20 µM [rising, single point]
13 | CO/N=C(\Cn1ncc(N2CCCC2)c(Cl)c1=O)c1ccc(Cl)cc1 | 17.8 µM [rising, single point] | 35.5 µM [rising, single point]
14 | CCOc1ccc(S(=O)(=O)N2CCC(c3ccncc3)CC2)cc1 | 1.12 µM [falling, full curve, poor fit] | 
15 | C=CCNC(=O)Nc1ccc(Br)cc1Cl | 0.00316 µM [rising, full curve, poor fit] | 15.8 µM [rising, partial curve, poor fit]
16 | O=S(=O)(c1cccc2nsnc12)N1CCN(C/C=C\c2ccccc2)CC1 |  | 22.4 µM [rising, single point]
17 | Cc1cc(C)n(-c2nc(C)c(C)c(=O)n2CC(=O)Nc2cccc([N+](=O)[O-])c2)n1 | 0.00447 µM [rising, full curve, poor fit] | 

Row | SMILES | AC50 [1] | AC50 [2]
18 | Cc1cccc(NCc2nnc(-c3ccccc3)o2)c1C |  | 1.58 µM [falling, partial curve, poor fit]
19 | CCCCCCCCCCCCCCCCCC(=O)OC(CC(=O)O)C[N+](C)(C)C (centres undefined) | 20 µM [falling, partial curve] | 11.2 µM [falling, partial curve]
20 | COc1ccc(N2CCN(C(CNC(=O)c3ccco3)c3cccnc3)CC2)cc1 (centres undefined) | 20 µM [rising, partial curve, poor fit] | 14.1 µM [rising, single point]
21 | CCOc1ccc(N(C(=O)/C=C/C(=O)Nc2cc(C)on2)C(C(=O)NC2CCCC2)c2ccccc2C)cc1 (centres undefined) | 35.5 µM [falling, single point] | 35.5 µM [falling, single point]
22 | Cc1cc(Nc2ccc(Br)c(C)c2)n2nc(-c3ccco3)nc2n1 | 12.6 µM [falling, partial curve] | 35.5 µM [falling, single point]
23 | NC(=NCCc1ccccc1)NS(=O)(=O)c1ccc2ccccc2c1 | 8.91 µM [rising, partial curve, poor fit] | 12.6 µM [rising, partial curve, poor fit]
24 | CN(CC(=O)Nc1cc([N+](=O)[O-])ccc1Cl)Cc1ccc(Br)cc1 |  | 35.5 µM [rising, single point]
25 | O=C1N/C(=C\c2ccc(O)cc2)C(=O)c2ccccc21 | 35.5 µM [falling, single point] | 31.6 µM [falling, single point]
26 | CCOc1ccccc1OCc1nn2c(-c3ccc(C)cc3)nnc2s1 |  | 12.6 µM [rising, single point]
27 | O=C(CSc1nnnn1-c1ccc2c(c1)OCCO2)Nc1nc2c(s1)CCCC2 | 2.51 µM [rising, full curve, poor fit] | 6.31 µM [rising, partial curve]
28 | O=C(O)c1c(Cl)c(Cl)c(Cl)c(Cl)c1-c1c2cc(I)c(=O)c(I)c-2oc2c(I)c(O)c(I)cc12 | 4.47 µM [rising, partial curve, poor fit] | 0.398 µM [rising, single point]
29 | COc1ccc(S(=O)(=O)NCC(c2ccc(N(C)C)cc2)N2CCc3ccccc32)cc1F (centres undefined) | 14.1 µM [falling, single point] | 
30 | COc1ccc(/C=C2\CCCC3C2=NC(=S)NC3c2ccc(OC)cc2)cc1 (centres undefined) | 3.98 µM [rising, full curve, poor fit] | 7.08 µM [rising, partial curve]
31 | Cc1nn2c(=O)cc(COC(=O)c3cccc(NC(=O)c4ccc(F)cc4)c3)nc2s1 |  | 20 µM [rising, partial curve, poor fit]
32 | O=C(Nc1ccc2c(c1)OCCO2)c1ccc(CN2CCOCC2)cc1 | 1.78 µM [rising, partial curve, poor fit] | 12.6 µM [rising, partial curve]
33 | CCn1c(SCC(=O)N(C(C)C)C(C)C)nnc1-c1cc2ccccc2cc1O |  | 11.2 µM [rising, partial curve]
34 | NCc1ccccc1CC(=O)N[C@@H]1C(=O)N2C(C(=O)O)=C(CSc3nnnn3CC(=O)O)CS[C@@H]12 |  | 0.0562 µM [falling, full curve, poor fit]

Three compounds already listed, ordered by length of the SMILES, descending.
Row | SMILES | AC50 [1] | AC50 [2]
21 | CCOc1ccc(N(C(=O)/C=C/C(=O)Nc2cc(C)on2)C(C(=O)NC2CCCC2)c2ccccc2C)cc1 (centres undefined) | 35.5 µM [falling, single point] | 35.5 µM [falling, single point]
18 | Cc1cccc(NCc2nnc(-c3ccccc3)o2)c1C |  | 1.58 µM [falling, partial curve, poor fit]
3 | Cc1ccc(S/C=C\C(=O)c2ccccc2)cc1 | 20 µM [falling, single point] | 35.5 µM [falling, single point]
